# PubChem BioAssay AID1487 (National Center for Advancing Translational Sciences (NCATS), 2009)
# Some of the results follow. Further columns of the screen follow, without active or inactive calls. Compounds called inactive in the main read-out are mostly missing here. Potencies come from curve fits of mixed quality, noted in brackets.
# Assay: qHTS Assay for Modulators of Lamin A Splicing
# Conditions: HeLa LMNA splicing GFP/RFP minigene ratio, 48 h
# Summary of the method: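 S3 HeLa cells stably expressing lamin A-EGFP splicing minigene plus DsRed2, 600 cells/well, 48 h compound exposure at 37C. Laser-scanning cytometry; analysed as GFP (500-530 nm)/RFP (575-640 nm) total intensity ratio; 0.5% DMSO vehicle.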
# [1] = measured here: RFP viability control channel
# [2] = measured here: GFP splicing reporter channel
Structure (SMILES),AC50 [1],AC50 [2]
CCOc1ccc(OCc2ccc(C(=O)N(CC)CC)cc2)cc1,"2.24 µM [rising, partial curve]",
COC(=O)c1ccc(NC(=O)C2CCN(c3ncnc4c3nc3n4CCCCC3)CC2)cc1,,"28.2 µM [falling, partial curve]"
O=C1C2C3C=CC(c4ccccc4)(C2C(=O)N1c1cccc(Cl)c1)C1C(=O)N(c2cccc(Cl)c2)C(=O)C31 (stereo not drawn),"0.0501 µM [rising, full curve, poor fit]",
COc1ccc(O)c(C(=O)c2cnc3nc4ccccc4n3c2)c1,"4.47 µM [rising, partial curve, poor fit]",
CCOC(=O)CSc1nc2ccc(NC(=O)c3ccc(Cl)cc3)cc2s1,"0.00316 µM [falling, full curve, poor fit]",
CC(=O)c1cccc(NC(=O)[C@@H](NC(N)=O)C(C)C)c1,,"1.58 µM [falling, partial curve, poor fit]"
NS(=O)(=O)c1ccc(CNC(=O)Cc2ccccc2F)cc1,"22.4 µM [falling, single point]",
N#CC1=C2SC=C(c3ccc(Br)cc3)N2CCCC1=O,"6.31 µM [falling, single point]",
Cc1cc(C)cc(NC(=O)CSc2c(C(C)C)cnc3c2c(=O)n(C)c(=O)n3C)c1,,"0.631 µM [rising, full curve, poor fit]"
Cc1cc(Nc2nc3ccccc3c3nnc(C)n23)ccc1Br,"17.8 µM [rising, single point]",
O=C(NCc1cccnc1)Nc1cccc(F)c1,"6.31 µM [rising, single point]","0.141 µM [rising, partial curve]"
O=C(O)CNC(=O)c1ccccc1,"0.316 µM [falling, partial curve, poor fit]","0.0562 µM [falling, full curve, poor fit]"
Cc1cccc(OCCC(=O)Nc2ccc(C)c(S(=O)(=O)N3CCCCC3)c2)c1,"12.6 µM [rising, partial curve]",
C=CCn1c(Cc2cccs2)nnc1SC/C=C/c1ccccc1,"20 µM [rising, single point]",
COc1ccccc1N1CCN(CCCCCCOc2ccc(F)cc2)CC1,"35.5 µM [rising, single point]","17.8 µM [rising, single point]"
NS(=O)(=O)c1cccnc1Nc1cccc(C(F)(F)F)c1,"7.94 µM [rising, partial curve, poor fit]",
O=C1CC[C@@H](C(=O)O)N1,"0.00562 µM [falling, full curve, poor fit]","0.00355 µM [falling, full curve, poor fit]"
Cc1cccc(NC(=O)CCCSc2nc3ccccc3[nH]2)c1,"12.6 µM [rising, single point]",
CC(Sc1nc2cc(Cl)ccc2s1)C(=O)Nc1cccc(S(=O)(=O)N2CCOCC2)c1 (stereo not drawn),,"20 µM [rising, single point]"

Structure (SMILES),AC50 [1],AC50 [2]
COc1ccc(C2c3c(ncn(Cc4ccco4)c3=N)Oc3ccc4ccccc4c32)cc1 (stereo not drawn),"35.5 µM [rising, single point]",
CC(C)C(=O)NCCc1nc2ccccc2n1CCc1ccccc1,,"25.1 µM [falling, partial curve, poor fit]"
CCOC(=O)c1noc2ncn(CC(=O)Nc3ccc(F)cc3Cl)c(=O)c12,,"1 µM [falling, full curve, poor fit]"
Cc1cccc(OCCn2cc(/C=N/NC(=O)c3ccncc3)c3ccccc32)c1,"31.6 µM [rising, single point]","22.4 µM [rising, single point]"
CCN(CC)S(=O)(=O)c1cccc(C(=O)c2c(C)cc3ccccn23)c1,"11.2 µM [rising, partial curve]","5.62 µM [rising, full curve, poor fit]"
Cc1oc(-c2cccc(Cl)c2)nc1CSc1nc2c(c(=O)[nH]1)CCC2,"0.0251 µM [falling, full curve]","0.0251 µM [falling, full curve, poor fit]"
CCn1ncc(Br)c1C(=O)Nc1cc(C)cc(C)c1,,"8.91 µM [rising, single point]"
O=C(c1cccc(COCC(F)(F)C(F)F)c1)N1CCN(c2ccccc2)CC1,"22.4 µM [rising, single point]","11.2 µM [rising, partial curve, poor fit]"
CCOC(=O)c1cnc(SCC(=O)Nc2ccc3c(c2)OCCO3)nc1N,"35.5 µM [rising, single point]",
COc1ccc(Nc2ncnc3c2cnn3Cc2ccccc2)cc1,"31.6 µM [rising, single point]",
CCOC(=O)Cc1csc(NS(=O)(=O)c2ccc3c4c(cccc24)C(=O)N3CC)n1,"11.2 µM [rising, partial curve]",
Cc1ccccc1NC(=O)/C=C/c1ccc([N+](=O)[O-])s1,"6.31 µM [falling, full curve]","8.91 µM [falling, partial curve]"
COc1cccc(/C=C(/C(=O)OCC(=O)NC2CCCCCCC2)c2ccccc2)c1,"22.4 µM [rising, single point]",
Cc1ccc(Sc2ccc(C(=O)N(C)C)cc2[N+](=O)[O-])cc1,"14.1 µM [falling, single point]","3.98 µM [falling, partial curve, poor fit]"
Fc1ccccc1OCCSc1nnnn1-c1ccccc1,"31.6 µM [rising, single point]",
O=C1CC(c2ccc(OCCCCCOc3ccc(C4CC(=O)NC4=O)cc3)cc2)C(=O)N1 (stereo not drawn),"28.2 µM [rising, single point]","35.5 µM [rising, single point]"
Nc1cc(Cl)ccc1Oc1ccc2ccccc2c1,"12.6 µM [rising, single point]",
Cc1ccc(CNC(=O)Cc2ccc(-c3ccccc3)cc2)cc1,,"5.01 µM [falling, full curve, poor fit]"

# Ordered by molar mass (low to high): three of the compounds above
Structure (SMILES),AC50 [1],AC50 [2]
CC(=O)c1cccc(NC(=O)[C@@H](NC(N)=O)C(C)C)c1,,"1.58 µM [falling, partial curve, poor fit]"
NS(=O)(=O)c1ccc(CNC(=O)Cc2ccccc2F)cc1,"22.4 µM [falling, single point]",
CCN(CC)S(=O)(=O)c1cccc(C(=O)c2c(C)cc3ccccn23)c1,"11.2 µM [rising, partial curve]","5.62 µM [rising, full curve, poor fit]"
